Results: PMC8967291

Chains of the proteins cited; added tags and fusions are not shown.
UniProt P23242: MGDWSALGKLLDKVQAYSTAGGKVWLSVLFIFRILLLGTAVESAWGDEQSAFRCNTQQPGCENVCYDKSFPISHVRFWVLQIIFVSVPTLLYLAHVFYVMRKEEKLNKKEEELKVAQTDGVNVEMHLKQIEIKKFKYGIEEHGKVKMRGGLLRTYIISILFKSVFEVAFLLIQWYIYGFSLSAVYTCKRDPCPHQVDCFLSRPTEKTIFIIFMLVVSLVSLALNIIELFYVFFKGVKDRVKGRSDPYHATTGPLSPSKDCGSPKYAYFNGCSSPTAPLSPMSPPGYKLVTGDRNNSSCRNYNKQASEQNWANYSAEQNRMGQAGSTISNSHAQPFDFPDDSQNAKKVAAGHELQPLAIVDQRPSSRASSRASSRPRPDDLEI
UniProt P63085: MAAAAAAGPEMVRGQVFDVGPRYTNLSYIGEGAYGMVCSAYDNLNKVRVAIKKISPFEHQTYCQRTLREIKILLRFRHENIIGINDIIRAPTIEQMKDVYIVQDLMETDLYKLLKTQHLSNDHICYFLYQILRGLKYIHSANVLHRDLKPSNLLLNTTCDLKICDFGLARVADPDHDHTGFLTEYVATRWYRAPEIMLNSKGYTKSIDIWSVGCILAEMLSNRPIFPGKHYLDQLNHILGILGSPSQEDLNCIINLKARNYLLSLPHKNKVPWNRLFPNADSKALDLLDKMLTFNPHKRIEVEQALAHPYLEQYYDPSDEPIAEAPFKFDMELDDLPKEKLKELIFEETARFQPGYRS

Biological target: connexin 43 (mouse (endogenous in NMVMs)) (UniProt P23242)
Assay: affinity purification with mass spectrometry; Co-IP with antibody against Cx43 from RIPA lysates of NMVMs cultured under NG, NLG, HG and HLG conditions; overnight at 4°C, Protein G Agarose, five washes with cell lysis buffer (20 mM Tris-HCl, 150 mM glycerol, 0.5% Triton X-100, 1 mM EDTA, 1 mM EGTA); eluted proteins analysed on a Q Exactive HF Orbitrap

Row | binding | Substance
1 | binds | MAP2K1 (from UniProt P31938 1-393) (enzyme)
2 | binds | mitogen-activated protein kinase 1 (from UniProt P63085 1-358) (enzyme)

These are yes or no findings as the source states them, for the method shown. Binding seen in cells or lysates may run through a third protein. These calls come from enrichment with a bait or labelling near it, and not all partners need be listed.
